The values that follow are results of earlier work, collected in patent publication US11707436B2, “Methods of treating inflammatory disorders and global inflammation with compositions comprising phospholipid nanoparticle encapsulations of NSAIDS” (NanoSphere Health Sciences, LLC, priority 2014, dated 2023).

Structures are written as SMILES.

Data set [1] has as its system NF-KappaB.
For data set [2] the following is noted: rats, oral dosing.

For the molecule `COc1ccc2cc([C@H](C)C(=O)O)ccc2c1` [Naproxen], in data set [1] (versus Ibuprofen), the “potency at NF-kappaB inhibition relative to Ibuprofen” value is on record as 3.5 times. The “potency at NF-kappaB inhibition relative to aspirin” value in data set [1] (versus aspirin) was 6 times. For the same molecule, the “brain levels as share of that in plasma” value in data set [2] was “about 1%”.
